Measured values from article PMC3171462.
These are yes or no findings as the source states them, for the method shown. For part of these data: Binding seen in cells or lysates may run through a third protein. Some binding calls cover weakened binding; strength is not graded here. For part of these data: Sequences can lack the tags named with a protein.

Amino acid sequences for entries named in this document (tags omitted).
UniProt P04792: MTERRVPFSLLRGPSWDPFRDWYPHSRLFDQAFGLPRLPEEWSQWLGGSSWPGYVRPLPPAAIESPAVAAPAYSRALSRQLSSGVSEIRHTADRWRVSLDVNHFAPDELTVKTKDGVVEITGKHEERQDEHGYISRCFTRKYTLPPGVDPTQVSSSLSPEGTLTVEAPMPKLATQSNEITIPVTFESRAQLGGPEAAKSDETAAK

What was measured:
α-SNAP [1] = target: T1, α-SNAP (UniProt P54920); assay: co-IP; cell lysates ectopically expressing the proteins; results not shown
T1 sequence: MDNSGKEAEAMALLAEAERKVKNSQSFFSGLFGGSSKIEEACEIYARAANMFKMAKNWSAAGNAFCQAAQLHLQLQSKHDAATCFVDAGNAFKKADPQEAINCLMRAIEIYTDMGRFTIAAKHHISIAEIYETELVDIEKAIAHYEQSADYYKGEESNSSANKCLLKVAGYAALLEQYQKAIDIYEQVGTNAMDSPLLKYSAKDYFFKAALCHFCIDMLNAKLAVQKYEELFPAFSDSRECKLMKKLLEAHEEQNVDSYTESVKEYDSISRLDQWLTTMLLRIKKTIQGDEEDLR

[2] = target: T2, BKV agnoprotein (BK virus (BKV)) (UniProt P03085); assay: co-IP; HEK293 cells transfected with expression plasmids; whole cell extract immunoprecipitated with anti-agnoprotein or anti-α-SNAP antibodies; immunoblot
T2 sequence: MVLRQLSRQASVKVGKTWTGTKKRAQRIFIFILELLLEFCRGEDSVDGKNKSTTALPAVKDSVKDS

[3] = target: GST-agnoprotein-stop38 (BK virus (BKV)) (UniProt P03085); assay: pull-down; 10 µg of purified GST protein added to precleared HEK293 lysate in PBS with 1% Triton-X100; recovered on glutathione beads; immunoblot for α-SNAP; only the target purified
[4] = target: T3, GST-agnoprotein (BK virus (BKV)) (UniProt P03085); assay: as above
T3 sequence: T2 sequence

[5] = target: T4, purified BKV agnoprotein (BK virus (BKV)) (UniProt P03085); assay: co-IP; in vitro, purified His-α-SNAP (0.15 µM) and purified BKV agnoprotein (0.68 µM); 50 mM Tris-HCl pH 8.0, 150 mM NaCl, 1 mM EDTA, 1 mM DTT; reciprocal immunoprecipitation; immunoblot; both purified
T4 sequence: T2 sequence

[6] = target: T5, BKV agnoprotein expressed from the BKV genome (BK virus (BKV)) (UniProt P03085); assay: co-IP; U2OS cells transfected with the BKV genome, lysed 48 hours after transfection; agnoprotein immunoprecipitated; immunoblot for endogenous α-SNAP
T5 sequence: T2 sequence

α-SNAP [7] = target: T1, α-SNAP; assay: co-IP; HEK293 cells transfected with expression plasmids; whole cell extract immunoprecipitated with anti-agnoprotein or anti-α-SNAP antibodies; immunoblot
His-α-SNAP = target: T6, His-α-SNAP (UniProt P54920); assay: co-IP; in vitro, purified His-α-SNAP (0.15 µM) and purified BKV agnoprotein (0.68 µM); 50 mM Tris-HCl pH 8.0, 150 mM NaCl, 1 mM EDTA, 1 mM DTT; reciprocal immunoprecipitation; immunoblot; both purified
T6 sequence: T1 sequence

“BKV agnoprotein mutant Ser-7/Ser-11/Thr-21 to alanine (from UniProt P03085 1-66)” was tested, and the binding (α-SNAP [1]) was “binds”.

For Hsp27 (from UniProt P04792 1-205), the binding [2] was “no binding”.

B1: endogenous α-SNAP of HEK293 cells (protein, UniProt P54920 1-295)
chain: T1 sequence
With B1 the binding [3] was “binds” and the binding [4] was “binds”.

B2: His-α-SNAP (protein, UniProt P54920 1-295)
chain: T1 sequence
With B2 the binding [5] was “binds”.

B3: α-SNAP (protein, UniProt P54920 1-295)
chain: T1 sequence
B3 was tested, and the binding [2] was “binds”.

B4: endogenous α-SNAP of U2OS cells (protein, UniProt P54920 1-295)
chain: T1 sequence
With B4 the binding [6] was “binds”.

B5: BKV agnoprotein (protein, UniProt P03085 1-66)
chain: T2 sequence
With B5 the binding (α-SNAP [7]) was “binds”.

B6: purified BKV agnoprotein (protein, UniProt P03085 1-66)
chain: T2 sequence
In the case of B6, the binding (His-α-SNAP) is reported as “binds”.
